The other results are listed elsewhere or left out.
These sequences were tested against T1, OsSMF1 (Oryza sativa, UniProt Q6ZLB0 1-436) (assay: protein-binding microarray (RPBM); PBS, 2% BSA, 51.3 ng/ul salmon testes DNA, 50 uM zinc acetate, 200 nM TF, 25 C, 1 h; high values mean tight binding). Details: protein: recombinant; tags: N-terminal polyhistidine and DsRed monomer fusion (pET32a); chain copies: 2; label: CyDye5-dUTP incorporated in the synthesized complementary strand; 3' TTTTT single-stranded linker to array surface; dsDNA, one strand shown.
T1 sequence: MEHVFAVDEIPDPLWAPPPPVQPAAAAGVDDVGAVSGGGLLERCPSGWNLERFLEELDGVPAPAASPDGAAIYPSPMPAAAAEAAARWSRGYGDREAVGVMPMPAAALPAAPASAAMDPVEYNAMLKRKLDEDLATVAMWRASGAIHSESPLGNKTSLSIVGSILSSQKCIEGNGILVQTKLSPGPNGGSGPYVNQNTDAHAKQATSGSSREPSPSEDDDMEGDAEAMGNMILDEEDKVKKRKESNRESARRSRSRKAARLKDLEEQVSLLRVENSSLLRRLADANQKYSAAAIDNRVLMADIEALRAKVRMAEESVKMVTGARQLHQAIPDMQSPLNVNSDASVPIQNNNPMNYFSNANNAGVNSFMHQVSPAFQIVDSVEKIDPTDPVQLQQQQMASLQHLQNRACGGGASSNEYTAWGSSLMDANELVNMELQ
Method in brief: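 An Axon 4000B scanner gave the binding signal as per-feature fluorescence intensity in arbitrary units. This followed washing of a custom Agilent array that had been incubated for 1 h at 25 °C with 200 nM protein in PBS, 2% BSA, salmon testes DNA and 50 µM zinc acetate. The proteins were transcription factors fused at the N-terminus to polyhistidine and DsRed, expressed in E. coli BL21-CodonPlus and purified on Ni–NTA.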

| Sequence | binding signal |
| --- | --- |
| GGTACTCCTTCCATATTTTAATACATGACGCCGTTGATTTCGGAGTCACCTAGTGCAG | 4090 fluorescence intensity (a.u.) |
| CTCTGTTTCCTCTGCATGCGATGCATGCGTAGATCATCAGCGGAGTCACCTAGTGCAG | 21200 fluorescence intensity (a.u.) |
| TGAGAATACCAGATGACAAAAGGTGACAGTAGTTAGGAACCGGAGTCACCTAGTGCAG | 4190 fluorescence intensity (a.u.) |
| AATCTTCAATGCCCATCCTTAAGGGTGTGTTTGGATAATGCGGAGTCACCTAGTGCAG | 3930 fluorescence intensity (a.u.) |
| TCTAACCCCGCCTGCAGATCCGCTCCATCGATTCCCTCCCCGGAGTCACCTAGTGCAG | 31700 fluorescence intensity (a.u.) |
| ATTAAACGGGTCGAATTTGTCACCATATAGTACACGTCTCCGGAGTCACCTAGTGCAG | 4680 fluorescence intensity (a.u.) |
| TTCCCTGCAACGTGTTCCCGGGGCTGAAGTGTTCCGGTTCCGGAGTCACCTAGTGCAG | 4660 fluorescence intensity (a.u.) |
| TCGCAGTTGGCGTCGCGGCCGCCACCTCCTCCTACTCCGGCGGAGTCACCTAGTGCAG | 3640 fluorescence intensity (a.u.) |
| TCGAGCAGGCCGAGCAGTAGCAGAGCCTCACATCACGTGGCGGAGTCACCTAGTGCAG | 4100 fluorescence intensity (a.u.) |
| CCACGAGCGCCTGCGTCATCCCGTCTCATCGCGAGTCACCCGGAGTCACCTAGTGCAG | 9970 fluorescence intensity (a.u.) |
| ACAGCATCGATCGTCGCCACACCACTGCATCGATCTGTTGCGGAGTCACCTAGTGCAG | 4020 fluorescence intensity (a.u.) |
| TGTATAATACATGCCCACGCATTCGCGCGGGCTACCCTCCCGGAGTCACCTAGTGCAG | 3530 fluorescence intensity (a.u.) |
| ATCATGACAAAGCCCCGTCAGCATATGCATCACATCGCACCGGAGTCACCTAGTGCAG | 11600 fluorescence intensity (a.u.) |
| CCGTGGCTGTGGTTGCTGATGCAGTGAAGGAGAGCCGGAGCGGAGTCACCTAGTGCAG | 3280 fluorescence intensity (a.u.) |
| GTATTGGGGATGGGAGAATGGGAGCTGGGAGGGCGGCCGACGGAGTCACCTAGTGCAG | 3440 fluorescence intensity (a.u.) |
| AGCTGTTCGCCTCGTCCTCGTCCACGCGTAGTGCGAAGCTCGGAGTCACCTAGTGCAG | 4920 fluorescence intensity (a.u.) |
| CACTAAACTACCTATACTATCTCTACTATCACTTGGCTTTCGGAGTCACCTAGTGCAG | 3180 fluorescence intensity (a.u.) |
| GGTCGTCAGATCACGTTACACGTACATTCCAGCTTCAGATCGGAGTCACCTAGTGCAG | 5280 fluorescence intensity (a.u.) |
| CTTAATTAATTATACACACAAACATTCCCTCCAATGCATGCGGAGTCACCTAGTGCAG | 3760 fluorescence intensity (a.u.) |
| AGCGCCACGTGGAGAAATCCCCACGACTACCTCGGGCGGACGGAGTCACCTAGTGCAG | 11700 fluorescence intensity (a.u.) |
| TGGATTACTCATAATGATTATGTCATATAGGTGATGTTGCCGGAGTCACCTAGTGCAG | 3440 fluorescence intensity (a.u.) |

| Sequence | binding signal |
| --- | --- |
| TAATTAATTGATAGTGCCAAATGTTACTCCTATGGCACTGCGGAGTCACCTAGTGCAG | 36700 fluorescence intensity (a.u.) |
| CTTCGCCTCCCTCTCCGGCTCCAGCACATGGCTGCTTCTCCGGAGTCACCTAGTGCAG | 4120 fluorescence intensity (a.u.) |
| ATCCTCGGCGCCGGGCAAGAGGAAGCGGTCGGCGAGGGCGCGGAGTCACCTAGTGCAG | 38400 fluorescence intensity (a.u.) |
| GAATATATATGTTGTATGTGTGTGTATATCCTAGTTCTCTCGGAGTCACCTAGTGCAG | 3830 fluorescence intensity (a.u.) |
| CCTCACCGGTAAACGAGTCACCGGCTATCCTGGCCGGGCACGGAGTCACCTAGTGCAG | 4320 fluorescence intensity (a.u.) |
| AGGAAGCTAGAAACACAGTCCCACGGAACGCTTATTTTAACGGAGTCACCTAGTGCAG | 14100 fluorescence intensity (a.u.) |
| TTTACCACTTAATTATTTTAATCTTATTAATTAATTCTTTCGGAGTCACCTAGTGCAG | 28200 fluorescence intensity (a.u.) |
| AAGAAGAAGTTGCGCTGACATGTAGGATGACTCAACAGGTCGGAGTCACCTAGTGCAG | 7010 fluorescence intensity (a.u.) |
| TCTTCCCCTGTTTCTGACCAATCCCCTCTGCTCTCTCCTCCGGAGTCACCTAGTGCAG | 3570 fluorescence intensity (a.u.) |
| GTTTTCCATCGACCGATCGGTGAATCACCCGGTGCTAGTACGGAGTCACCTAGTGCAG | 3400 fluorescence intensity (a.u.) |
| CACGCGATCGGTTGCCACATCGATCGTCCGTTGCTTTGGACGGAGTCACCTAGTGCAG | 4000 fluorescence intensity (a.u.) |
| GGAACTTGGTCAAAACTCCGGTTTTCGAAAGCTGCTAATTCGGAGTCACCTAGTGCAG | 24100 fluorescence intensity (a.u.) |
| TCTCTCTCATTGGGCCACGCACGTCACTGATGCTTGAGCCCGGAGTCACCTAGTGCAG | 9140 fluorescence intensity (a.u.) |
| CGACTCCACCAACCCCAGCCCACCCCACGTCACGCCGCACCGGAGTCACCTAGTGCAG | 10100 fluorescence intensity (a.u.) |
| TCACGCGCCGCCGCCGCCTGTCGTGTAACCCACCACCTCCCGGAGTCACCTAGTGCAG | 4370 fluorescence intensity (a.u.) |
| CATTCTCCTTCTCTCTCGTACGGCTAGAGGTTGAAGACGACGGAGTCACCTAGTGCAG | 3760 fluorescence intensity (a.u.) |
| TTACCTGCTGACCTGTGTTTGTGTGTGATCTACTATCTGCCGGAGTCACCTAGTGCAG | 7070 fluorescence intensity (a.u.) |
| GCCGCCGCCGCCGCCGCCCTCGCCATCGCCTCCGCGAGCGCGGAGTCACCTAGTGCAG | 4480 fluorescence intensity (a.u.) |
| GGCGGATATTGTGTCCGGCGCCTGTCATGTTGCTAGATTCCGGAGTCACCTAGTGCAG | 3660 fluorescence intensity (a.u.) |
| TTGCGTGGTGTAAATTGTGCCTATCCAACGTGGAAAGACACGGAGTCACCTAGTGCAG | 3920 fluorescence intensity (a.u.) |
| TAATTACCTCCATCCCAAAACACTAGTTGTTTTGAGTTTTCGGAGTCACCTAGTGCAG | 3440 fluorescence intensity (a.u.) |

2 records drawn at random from the list so far:

| Sequence | binding signal |
| --- | --- |
| GTTTTCCATCGACCGATCGGTGAATCACCCGGTGCTAGTACGGAGTCACCTAGTGCAG | 3400 fluorescence intensity (a.u.) |
| CGACTCCACCAACCCCAGCCCACCCCACGTCACGCCGCACCGGAGTCACCTAGTGCAG | 10100 fluorescence intensity (a.u.) |

Reference: publication PMC7819943, “Rice protein-binding microarrays: a tool to detect cis-acting elements near promoter regions in rice”
